Laboratory results reported in article PMC11071257.

By UniProt entry, the sequences of proteins in these tests, tags left out. Where a name states a change or a piece, a line headed by the entry shows the natural chain unless it says otherwise.
UniProt Q9UM47: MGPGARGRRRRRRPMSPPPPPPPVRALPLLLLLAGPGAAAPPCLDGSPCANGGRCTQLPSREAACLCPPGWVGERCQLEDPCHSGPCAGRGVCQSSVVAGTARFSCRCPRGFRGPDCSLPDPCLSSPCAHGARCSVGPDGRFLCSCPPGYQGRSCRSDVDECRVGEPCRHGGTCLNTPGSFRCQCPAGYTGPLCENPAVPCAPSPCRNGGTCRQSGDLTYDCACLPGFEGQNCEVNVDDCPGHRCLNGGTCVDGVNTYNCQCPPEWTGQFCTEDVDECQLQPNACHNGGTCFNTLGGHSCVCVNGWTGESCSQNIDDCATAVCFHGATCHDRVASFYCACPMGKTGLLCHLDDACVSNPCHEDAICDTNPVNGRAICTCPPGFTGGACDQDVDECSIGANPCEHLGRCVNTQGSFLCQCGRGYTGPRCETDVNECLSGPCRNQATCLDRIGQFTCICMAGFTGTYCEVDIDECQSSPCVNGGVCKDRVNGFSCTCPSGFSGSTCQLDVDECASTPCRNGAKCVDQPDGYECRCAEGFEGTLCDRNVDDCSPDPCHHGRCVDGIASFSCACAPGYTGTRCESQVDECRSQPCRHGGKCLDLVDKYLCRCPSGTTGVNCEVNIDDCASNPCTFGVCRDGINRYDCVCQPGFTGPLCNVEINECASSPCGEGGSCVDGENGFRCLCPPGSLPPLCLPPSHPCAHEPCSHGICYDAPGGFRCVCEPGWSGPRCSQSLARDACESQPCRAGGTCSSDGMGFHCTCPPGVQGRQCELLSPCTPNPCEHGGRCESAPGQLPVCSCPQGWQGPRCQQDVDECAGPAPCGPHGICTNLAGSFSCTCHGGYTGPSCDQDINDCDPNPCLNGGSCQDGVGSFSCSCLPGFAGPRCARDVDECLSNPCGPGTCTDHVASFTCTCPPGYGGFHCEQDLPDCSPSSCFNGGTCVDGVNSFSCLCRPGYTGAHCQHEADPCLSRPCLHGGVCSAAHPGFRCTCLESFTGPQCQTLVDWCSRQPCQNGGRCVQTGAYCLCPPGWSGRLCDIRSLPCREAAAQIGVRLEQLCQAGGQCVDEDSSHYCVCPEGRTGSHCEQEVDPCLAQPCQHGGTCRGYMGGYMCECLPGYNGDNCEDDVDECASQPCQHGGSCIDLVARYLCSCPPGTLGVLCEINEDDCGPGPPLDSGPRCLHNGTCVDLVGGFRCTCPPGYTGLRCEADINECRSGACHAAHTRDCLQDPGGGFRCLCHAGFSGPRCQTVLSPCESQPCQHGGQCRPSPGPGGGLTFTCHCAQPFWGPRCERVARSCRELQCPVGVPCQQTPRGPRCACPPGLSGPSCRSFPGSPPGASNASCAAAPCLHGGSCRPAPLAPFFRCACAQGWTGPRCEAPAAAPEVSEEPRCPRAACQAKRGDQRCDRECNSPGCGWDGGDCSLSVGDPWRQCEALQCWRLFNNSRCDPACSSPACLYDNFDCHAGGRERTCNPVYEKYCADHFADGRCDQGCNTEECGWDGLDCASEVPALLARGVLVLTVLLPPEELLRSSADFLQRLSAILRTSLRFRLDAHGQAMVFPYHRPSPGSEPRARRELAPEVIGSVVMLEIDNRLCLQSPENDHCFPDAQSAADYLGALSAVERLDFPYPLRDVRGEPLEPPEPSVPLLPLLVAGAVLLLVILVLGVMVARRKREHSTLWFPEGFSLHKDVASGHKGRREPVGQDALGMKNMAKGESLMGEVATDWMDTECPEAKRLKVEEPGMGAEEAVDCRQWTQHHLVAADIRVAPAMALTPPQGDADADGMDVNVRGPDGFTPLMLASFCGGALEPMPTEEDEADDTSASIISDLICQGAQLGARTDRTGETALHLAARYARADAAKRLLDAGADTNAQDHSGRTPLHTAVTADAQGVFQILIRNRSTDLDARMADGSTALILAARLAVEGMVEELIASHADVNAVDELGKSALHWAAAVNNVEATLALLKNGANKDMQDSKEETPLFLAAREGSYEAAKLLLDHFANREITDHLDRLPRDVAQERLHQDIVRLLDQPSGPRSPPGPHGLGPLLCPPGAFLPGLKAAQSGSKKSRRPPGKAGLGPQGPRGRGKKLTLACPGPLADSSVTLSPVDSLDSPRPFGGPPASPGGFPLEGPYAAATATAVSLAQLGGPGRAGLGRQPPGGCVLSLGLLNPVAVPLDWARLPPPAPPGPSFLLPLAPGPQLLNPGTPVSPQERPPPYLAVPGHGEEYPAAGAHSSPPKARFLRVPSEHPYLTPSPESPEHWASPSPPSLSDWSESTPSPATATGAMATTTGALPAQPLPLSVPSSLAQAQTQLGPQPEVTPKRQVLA
UniProt P46531: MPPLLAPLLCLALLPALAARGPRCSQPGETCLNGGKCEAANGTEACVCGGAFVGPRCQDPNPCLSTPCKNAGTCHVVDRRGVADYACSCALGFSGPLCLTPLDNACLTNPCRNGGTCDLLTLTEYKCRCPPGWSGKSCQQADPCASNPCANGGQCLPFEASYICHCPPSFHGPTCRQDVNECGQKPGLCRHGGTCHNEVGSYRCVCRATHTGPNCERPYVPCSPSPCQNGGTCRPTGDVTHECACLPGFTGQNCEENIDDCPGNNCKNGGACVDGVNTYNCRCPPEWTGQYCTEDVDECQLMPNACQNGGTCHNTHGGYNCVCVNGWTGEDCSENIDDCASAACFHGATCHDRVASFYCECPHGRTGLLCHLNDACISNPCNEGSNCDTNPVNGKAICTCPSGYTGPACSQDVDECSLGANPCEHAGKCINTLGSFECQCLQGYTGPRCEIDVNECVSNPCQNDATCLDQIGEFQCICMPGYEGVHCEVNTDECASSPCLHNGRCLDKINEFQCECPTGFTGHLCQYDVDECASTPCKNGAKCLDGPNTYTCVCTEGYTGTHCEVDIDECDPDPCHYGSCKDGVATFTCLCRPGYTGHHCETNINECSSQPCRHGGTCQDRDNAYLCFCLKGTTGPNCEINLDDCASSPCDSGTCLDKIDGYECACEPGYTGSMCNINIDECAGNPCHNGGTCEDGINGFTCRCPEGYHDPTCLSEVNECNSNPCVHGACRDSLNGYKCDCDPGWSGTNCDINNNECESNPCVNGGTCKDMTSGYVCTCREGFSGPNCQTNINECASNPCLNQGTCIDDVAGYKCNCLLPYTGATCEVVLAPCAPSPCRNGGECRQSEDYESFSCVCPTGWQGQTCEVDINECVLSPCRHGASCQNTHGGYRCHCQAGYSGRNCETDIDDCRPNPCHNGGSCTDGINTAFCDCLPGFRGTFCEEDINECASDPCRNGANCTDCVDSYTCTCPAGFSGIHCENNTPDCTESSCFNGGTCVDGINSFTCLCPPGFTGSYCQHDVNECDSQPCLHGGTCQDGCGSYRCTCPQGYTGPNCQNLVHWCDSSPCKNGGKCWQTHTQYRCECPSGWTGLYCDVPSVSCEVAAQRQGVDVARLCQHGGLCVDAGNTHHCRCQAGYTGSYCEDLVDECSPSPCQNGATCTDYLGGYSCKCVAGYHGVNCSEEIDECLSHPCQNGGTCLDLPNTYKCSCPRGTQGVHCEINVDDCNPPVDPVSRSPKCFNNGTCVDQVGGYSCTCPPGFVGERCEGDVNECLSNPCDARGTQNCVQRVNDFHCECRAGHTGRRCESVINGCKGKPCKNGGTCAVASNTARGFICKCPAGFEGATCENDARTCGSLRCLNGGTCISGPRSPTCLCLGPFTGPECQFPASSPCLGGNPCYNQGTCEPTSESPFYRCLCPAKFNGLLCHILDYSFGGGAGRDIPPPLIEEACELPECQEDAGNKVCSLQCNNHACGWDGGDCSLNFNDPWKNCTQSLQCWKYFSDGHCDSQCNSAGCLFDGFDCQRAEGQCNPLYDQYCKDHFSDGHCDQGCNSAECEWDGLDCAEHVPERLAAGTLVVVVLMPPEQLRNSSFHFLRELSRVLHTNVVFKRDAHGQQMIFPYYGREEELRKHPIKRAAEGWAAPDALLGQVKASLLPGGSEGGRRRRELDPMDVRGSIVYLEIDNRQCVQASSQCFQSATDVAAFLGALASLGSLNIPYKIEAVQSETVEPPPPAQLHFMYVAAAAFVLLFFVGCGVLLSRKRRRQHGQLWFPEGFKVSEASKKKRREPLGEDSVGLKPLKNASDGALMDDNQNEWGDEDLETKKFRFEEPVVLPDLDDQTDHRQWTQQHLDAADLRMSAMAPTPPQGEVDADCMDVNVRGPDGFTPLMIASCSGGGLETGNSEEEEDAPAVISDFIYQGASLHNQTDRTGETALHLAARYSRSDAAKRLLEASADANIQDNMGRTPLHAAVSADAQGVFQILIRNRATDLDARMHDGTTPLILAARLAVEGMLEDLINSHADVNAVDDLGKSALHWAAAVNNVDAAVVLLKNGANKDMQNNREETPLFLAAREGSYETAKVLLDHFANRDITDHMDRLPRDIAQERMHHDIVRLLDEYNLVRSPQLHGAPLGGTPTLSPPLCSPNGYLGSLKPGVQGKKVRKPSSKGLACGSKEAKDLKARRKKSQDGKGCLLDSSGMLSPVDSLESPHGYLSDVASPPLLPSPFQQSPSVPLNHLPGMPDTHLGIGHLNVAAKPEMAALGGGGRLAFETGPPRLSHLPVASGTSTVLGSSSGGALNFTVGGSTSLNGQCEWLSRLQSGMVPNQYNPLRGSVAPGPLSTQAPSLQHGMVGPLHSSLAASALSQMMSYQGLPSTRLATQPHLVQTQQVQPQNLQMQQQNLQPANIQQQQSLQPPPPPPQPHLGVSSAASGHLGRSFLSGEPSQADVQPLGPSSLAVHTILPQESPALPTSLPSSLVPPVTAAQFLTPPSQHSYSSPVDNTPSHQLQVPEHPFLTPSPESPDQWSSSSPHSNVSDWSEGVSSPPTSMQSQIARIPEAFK

What was measured:
[1] = molecular target: Notch3 intracellular domain (N3ICD), endogenous (human (endogenous in Mel JuSo)) (UniProt Q9UM47); experiment: co-IP; RIPA lysates of Mel JuSo NRN1-GFP cells transfected with pcDNA (control) or N1ICD-V5, harvested after 48 h, precleared with Protein G-Sepharose; precipitated with rabbit IgG (isotype control), V5 or Notch3 antibody, 4 °C overnight; Western blot probed with GFP, V5 and Notch3 antibodies
[2] = molecular target: Notch1 intracellular domain tagged with V5 (N1ICD-V5) (UniProt P46531); experiment: as above

binding [1]: binds | binding [2]: binds
B1: NRN1-GFP (Neuritin-1 with GFP tag) (protein, UniProt Q9NPD7 28-116)
chain: AGKCDAVFKGFSDCLLKLGDSMANYPQGLDDKTNIKTVCTYWEDFHSCTVTALTDCQEGAKDMWDKLRKESKNLNIQGSLFELCGSGNG

These are yes or no findings as the source states them, for the method shown. Binding seen in cells or lysates may run through a third protein. A result given as binding can be weak or reduced; the word gives no strength. Where a sequence is shown, tags or fusion partners need not be part of it.
